Assay results from paper PMC5550843.
No constants are given. Whether binding was seen depends on the method and setting. Binding seen in cells or lysates may run through a third protein. Binding can be weak; no strength is given.

Chains of the proteins cited; added tags and fusions are not shown. Lines headed by an entry give the natural chain unless they say otherwise; changes in a name come on top.
UniProt Q8VCX5: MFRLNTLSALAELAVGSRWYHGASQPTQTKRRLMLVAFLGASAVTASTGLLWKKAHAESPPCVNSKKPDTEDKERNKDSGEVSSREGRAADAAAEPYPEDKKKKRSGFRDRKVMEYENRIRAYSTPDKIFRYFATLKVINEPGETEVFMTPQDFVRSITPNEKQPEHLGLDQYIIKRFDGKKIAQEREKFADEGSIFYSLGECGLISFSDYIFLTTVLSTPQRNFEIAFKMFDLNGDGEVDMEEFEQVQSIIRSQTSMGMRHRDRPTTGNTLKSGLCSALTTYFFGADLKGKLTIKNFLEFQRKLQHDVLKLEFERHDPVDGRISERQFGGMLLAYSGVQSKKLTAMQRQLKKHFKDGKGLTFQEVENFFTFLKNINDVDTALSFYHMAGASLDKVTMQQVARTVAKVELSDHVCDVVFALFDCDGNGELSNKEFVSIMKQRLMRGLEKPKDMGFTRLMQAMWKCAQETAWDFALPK

Target: mitochondrial Ca2+ uptake 1 (MICU1) (mouse (endogenous in C57BL6/J heart)) (UniProt Q8VCX5)
Assay: co-IP; MICU1 antibody bound to protein A/G Plus Agarose; diluted mouse myocardial extracts, 4 °C for 2 h; IP buffer 150 mM NaCl, 1.5 mM MgCl2, 1 mM EGTA, 20 mM HEPES pH 7.4, 1% NP40; western blot for MICU1 and Tom70

- binding: binds
B1: Tom70 (protein, UniProt Q9CZW5 1-611)
chain: MAASKPIEAAMAAAAAPGSGNGVGGGGGTAGPGSGAGTLPRWHVALAIGAPLLLGAGAMYLWSRRRRRREAGGRGDASGLKRNSERKTPEGRASPALGSGHHDGSGDSLEMSSLDRAQAAKNKGNKYFKAGKYEQAIQCYTEAISLCPTEKNVDLSTFYQNRAAAFEQLQKWKEVAQDCTKAVELNPKYVKALFRRAKAHEKLDNKKECLEDVTAVCILEGFQNEQSMLLADKVLKLLGKENAKEKYKNREPLMPSPQFIKSYFSSFTDDIISQPMLKGEKSDEDKDKEGEALEVKENSGYLKAKQYMEEENYDKIISECSKEIDAQGKYMAEALLLRATFYLLIGSANAAKPDLDKVISLKEANVKLRANALIKRGTMCMQQQQPMLSTQDFNMAAEIDPMNSDVYHHRGQLKILLDLVEEAVADFDACIRLRPKFALAQAQKCFALYRQAYTANNSSQVQAAMKGFEEIIKKFPRCAEGYALYAQALTDQQQFGKADEMYDKCIDLEPDNATTYVHKGLLQLQWKQDLDKGLELISKAIEIDNKCDFAYETMGTIEVQRGNMEKAIDMFNKAINLAKSEMEMAHLYSLCDAAHAQTEVAKKYGLKPPTL
